Measured values as given in the supplement of paper PMC10849652.
Some of the results follow. Residues, ends and D or L forms follow the SMILES beside them. *: point of attachment. Cbz = O=C(OCc1ccccc1)*

By UniProt entry, the sequences of proteins in these tests, tags left out. Where a name states a change or a piece, a line headed by the entry shows the natural chain unless it says otherwise.
UniProt Q5TA50: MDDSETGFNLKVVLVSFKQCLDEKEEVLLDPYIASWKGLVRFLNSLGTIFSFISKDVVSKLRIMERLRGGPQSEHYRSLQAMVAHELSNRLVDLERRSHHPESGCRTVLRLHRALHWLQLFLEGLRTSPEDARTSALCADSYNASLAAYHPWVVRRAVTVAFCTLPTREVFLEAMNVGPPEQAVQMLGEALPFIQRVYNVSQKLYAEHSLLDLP
UniProt Q6UUV7: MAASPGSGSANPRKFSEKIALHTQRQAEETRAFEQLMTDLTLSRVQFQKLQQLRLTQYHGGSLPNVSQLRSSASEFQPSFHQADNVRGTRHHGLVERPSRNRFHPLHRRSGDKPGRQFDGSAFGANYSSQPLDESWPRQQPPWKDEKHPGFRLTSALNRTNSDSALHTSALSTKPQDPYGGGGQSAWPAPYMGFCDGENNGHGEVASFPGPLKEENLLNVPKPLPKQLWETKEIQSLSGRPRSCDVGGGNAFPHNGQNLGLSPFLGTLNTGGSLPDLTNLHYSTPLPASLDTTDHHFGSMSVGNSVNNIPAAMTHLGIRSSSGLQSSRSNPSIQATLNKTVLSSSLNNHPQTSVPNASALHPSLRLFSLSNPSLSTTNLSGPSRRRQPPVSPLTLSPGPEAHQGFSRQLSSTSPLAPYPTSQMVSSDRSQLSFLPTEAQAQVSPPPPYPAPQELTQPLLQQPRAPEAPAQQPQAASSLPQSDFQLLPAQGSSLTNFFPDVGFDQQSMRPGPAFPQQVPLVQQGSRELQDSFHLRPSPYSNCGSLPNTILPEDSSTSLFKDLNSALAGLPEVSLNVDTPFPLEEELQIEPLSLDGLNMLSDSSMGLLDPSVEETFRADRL
UniProt Q7Z4G1, whole entry, looked up: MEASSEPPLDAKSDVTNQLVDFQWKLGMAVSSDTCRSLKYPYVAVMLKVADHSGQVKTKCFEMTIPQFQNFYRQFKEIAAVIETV
UniProt Q9UI42: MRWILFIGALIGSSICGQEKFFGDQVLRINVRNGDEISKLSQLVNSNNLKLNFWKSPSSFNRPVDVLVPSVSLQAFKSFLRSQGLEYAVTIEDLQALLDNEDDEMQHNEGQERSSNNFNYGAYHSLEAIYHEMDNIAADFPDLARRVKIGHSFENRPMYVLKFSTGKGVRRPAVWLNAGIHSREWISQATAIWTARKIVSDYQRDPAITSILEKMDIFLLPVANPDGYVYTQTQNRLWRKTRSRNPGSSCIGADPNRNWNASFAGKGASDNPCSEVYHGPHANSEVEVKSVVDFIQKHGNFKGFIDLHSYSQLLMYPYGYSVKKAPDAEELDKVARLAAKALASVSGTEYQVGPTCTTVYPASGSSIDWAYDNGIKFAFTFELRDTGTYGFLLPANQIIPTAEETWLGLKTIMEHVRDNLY
UniProt P02458, whole entry, looked up: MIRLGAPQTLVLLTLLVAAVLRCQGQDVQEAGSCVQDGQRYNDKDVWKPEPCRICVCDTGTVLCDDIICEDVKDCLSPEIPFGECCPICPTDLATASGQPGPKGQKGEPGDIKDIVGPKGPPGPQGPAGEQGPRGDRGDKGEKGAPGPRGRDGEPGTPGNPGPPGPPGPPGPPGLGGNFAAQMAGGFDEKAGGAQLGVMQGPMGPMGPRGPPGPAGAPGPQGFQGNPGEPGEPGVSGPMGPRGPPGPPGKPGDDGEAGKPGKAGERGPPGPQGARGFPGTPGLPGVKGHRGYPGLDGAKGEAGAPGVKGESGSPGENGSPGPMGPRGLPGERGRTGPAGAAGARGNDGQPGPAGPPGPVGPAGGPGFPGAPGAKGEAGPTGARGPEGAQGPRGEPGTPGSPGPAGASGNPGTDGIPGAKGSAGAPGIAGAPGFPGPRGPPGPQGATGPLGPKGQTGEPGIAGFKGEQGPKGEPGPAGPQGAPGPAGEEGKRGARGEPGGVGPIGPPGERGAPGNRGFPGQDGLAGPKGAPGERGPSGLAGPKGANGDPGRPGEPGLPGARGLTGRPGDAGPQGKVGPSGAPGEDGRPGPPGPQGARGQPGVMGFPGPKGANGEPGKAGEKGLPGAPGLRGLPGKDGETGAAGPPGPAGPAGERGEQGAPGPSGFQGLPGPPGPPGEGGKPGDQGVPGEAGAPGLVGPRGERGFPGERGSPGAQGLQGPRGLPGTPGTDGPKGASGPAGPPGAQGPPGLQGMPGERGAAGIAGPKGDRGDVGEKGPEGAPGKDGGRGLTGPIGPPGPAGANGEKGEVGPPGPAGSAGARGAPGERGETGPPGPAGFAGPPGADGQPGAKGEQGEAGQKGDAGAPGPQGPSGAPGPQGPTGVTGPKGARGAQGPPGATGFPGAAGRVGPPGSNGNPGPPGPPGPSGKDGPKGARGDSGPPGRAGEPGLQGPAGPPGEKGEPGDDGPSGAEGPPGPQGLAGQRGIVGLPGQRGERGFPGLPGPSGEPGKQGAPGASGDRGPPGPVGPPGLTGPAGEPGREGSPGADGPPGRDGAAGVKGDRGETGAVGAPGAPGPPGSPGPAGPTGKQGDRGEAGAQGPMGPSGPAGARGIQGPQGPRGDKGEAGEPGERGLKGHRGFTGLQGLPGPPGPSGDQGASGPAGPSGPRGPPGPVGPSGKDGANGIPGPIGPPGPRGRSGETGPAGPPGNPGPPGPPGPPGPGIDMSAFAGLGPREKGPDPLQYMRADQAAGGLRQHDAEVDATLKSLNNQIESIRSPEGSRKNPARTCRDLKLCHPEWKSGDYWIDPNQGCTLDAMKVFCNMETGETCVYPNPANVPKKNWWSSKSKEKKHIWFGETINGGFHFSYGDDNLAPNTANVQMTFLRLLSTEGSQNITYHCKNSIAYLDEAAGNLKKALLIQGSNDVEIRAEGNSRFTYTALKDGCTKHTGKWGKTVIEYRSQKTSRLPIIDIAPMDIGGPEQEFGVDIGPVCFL
UniProt P15169: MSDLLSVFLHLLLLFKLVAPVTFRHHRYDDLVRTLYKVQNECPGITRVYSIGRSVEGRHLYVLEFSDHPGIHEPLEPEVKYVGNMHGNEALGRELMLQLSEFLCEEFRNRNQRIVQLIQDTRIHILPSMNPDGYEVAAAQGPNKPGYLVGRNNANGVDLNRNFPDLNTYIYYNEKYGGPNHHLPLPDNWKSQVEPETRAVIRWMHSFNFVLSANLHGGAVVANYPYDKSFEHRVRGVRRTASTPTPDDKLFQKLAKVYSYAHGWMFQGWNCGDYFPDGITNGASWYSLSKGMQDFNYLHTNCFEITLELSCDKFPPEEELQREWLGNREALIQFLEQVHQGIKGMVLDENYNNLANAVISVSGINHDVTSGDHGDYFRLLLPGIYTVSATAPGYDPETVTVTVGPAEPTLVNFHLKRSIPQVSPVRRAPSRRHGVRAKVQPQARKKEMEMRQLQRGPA
UniProt Q96I36: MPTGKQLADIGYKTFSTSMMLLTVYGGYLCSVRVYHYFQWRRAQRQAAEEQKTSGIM
UniProt P12111: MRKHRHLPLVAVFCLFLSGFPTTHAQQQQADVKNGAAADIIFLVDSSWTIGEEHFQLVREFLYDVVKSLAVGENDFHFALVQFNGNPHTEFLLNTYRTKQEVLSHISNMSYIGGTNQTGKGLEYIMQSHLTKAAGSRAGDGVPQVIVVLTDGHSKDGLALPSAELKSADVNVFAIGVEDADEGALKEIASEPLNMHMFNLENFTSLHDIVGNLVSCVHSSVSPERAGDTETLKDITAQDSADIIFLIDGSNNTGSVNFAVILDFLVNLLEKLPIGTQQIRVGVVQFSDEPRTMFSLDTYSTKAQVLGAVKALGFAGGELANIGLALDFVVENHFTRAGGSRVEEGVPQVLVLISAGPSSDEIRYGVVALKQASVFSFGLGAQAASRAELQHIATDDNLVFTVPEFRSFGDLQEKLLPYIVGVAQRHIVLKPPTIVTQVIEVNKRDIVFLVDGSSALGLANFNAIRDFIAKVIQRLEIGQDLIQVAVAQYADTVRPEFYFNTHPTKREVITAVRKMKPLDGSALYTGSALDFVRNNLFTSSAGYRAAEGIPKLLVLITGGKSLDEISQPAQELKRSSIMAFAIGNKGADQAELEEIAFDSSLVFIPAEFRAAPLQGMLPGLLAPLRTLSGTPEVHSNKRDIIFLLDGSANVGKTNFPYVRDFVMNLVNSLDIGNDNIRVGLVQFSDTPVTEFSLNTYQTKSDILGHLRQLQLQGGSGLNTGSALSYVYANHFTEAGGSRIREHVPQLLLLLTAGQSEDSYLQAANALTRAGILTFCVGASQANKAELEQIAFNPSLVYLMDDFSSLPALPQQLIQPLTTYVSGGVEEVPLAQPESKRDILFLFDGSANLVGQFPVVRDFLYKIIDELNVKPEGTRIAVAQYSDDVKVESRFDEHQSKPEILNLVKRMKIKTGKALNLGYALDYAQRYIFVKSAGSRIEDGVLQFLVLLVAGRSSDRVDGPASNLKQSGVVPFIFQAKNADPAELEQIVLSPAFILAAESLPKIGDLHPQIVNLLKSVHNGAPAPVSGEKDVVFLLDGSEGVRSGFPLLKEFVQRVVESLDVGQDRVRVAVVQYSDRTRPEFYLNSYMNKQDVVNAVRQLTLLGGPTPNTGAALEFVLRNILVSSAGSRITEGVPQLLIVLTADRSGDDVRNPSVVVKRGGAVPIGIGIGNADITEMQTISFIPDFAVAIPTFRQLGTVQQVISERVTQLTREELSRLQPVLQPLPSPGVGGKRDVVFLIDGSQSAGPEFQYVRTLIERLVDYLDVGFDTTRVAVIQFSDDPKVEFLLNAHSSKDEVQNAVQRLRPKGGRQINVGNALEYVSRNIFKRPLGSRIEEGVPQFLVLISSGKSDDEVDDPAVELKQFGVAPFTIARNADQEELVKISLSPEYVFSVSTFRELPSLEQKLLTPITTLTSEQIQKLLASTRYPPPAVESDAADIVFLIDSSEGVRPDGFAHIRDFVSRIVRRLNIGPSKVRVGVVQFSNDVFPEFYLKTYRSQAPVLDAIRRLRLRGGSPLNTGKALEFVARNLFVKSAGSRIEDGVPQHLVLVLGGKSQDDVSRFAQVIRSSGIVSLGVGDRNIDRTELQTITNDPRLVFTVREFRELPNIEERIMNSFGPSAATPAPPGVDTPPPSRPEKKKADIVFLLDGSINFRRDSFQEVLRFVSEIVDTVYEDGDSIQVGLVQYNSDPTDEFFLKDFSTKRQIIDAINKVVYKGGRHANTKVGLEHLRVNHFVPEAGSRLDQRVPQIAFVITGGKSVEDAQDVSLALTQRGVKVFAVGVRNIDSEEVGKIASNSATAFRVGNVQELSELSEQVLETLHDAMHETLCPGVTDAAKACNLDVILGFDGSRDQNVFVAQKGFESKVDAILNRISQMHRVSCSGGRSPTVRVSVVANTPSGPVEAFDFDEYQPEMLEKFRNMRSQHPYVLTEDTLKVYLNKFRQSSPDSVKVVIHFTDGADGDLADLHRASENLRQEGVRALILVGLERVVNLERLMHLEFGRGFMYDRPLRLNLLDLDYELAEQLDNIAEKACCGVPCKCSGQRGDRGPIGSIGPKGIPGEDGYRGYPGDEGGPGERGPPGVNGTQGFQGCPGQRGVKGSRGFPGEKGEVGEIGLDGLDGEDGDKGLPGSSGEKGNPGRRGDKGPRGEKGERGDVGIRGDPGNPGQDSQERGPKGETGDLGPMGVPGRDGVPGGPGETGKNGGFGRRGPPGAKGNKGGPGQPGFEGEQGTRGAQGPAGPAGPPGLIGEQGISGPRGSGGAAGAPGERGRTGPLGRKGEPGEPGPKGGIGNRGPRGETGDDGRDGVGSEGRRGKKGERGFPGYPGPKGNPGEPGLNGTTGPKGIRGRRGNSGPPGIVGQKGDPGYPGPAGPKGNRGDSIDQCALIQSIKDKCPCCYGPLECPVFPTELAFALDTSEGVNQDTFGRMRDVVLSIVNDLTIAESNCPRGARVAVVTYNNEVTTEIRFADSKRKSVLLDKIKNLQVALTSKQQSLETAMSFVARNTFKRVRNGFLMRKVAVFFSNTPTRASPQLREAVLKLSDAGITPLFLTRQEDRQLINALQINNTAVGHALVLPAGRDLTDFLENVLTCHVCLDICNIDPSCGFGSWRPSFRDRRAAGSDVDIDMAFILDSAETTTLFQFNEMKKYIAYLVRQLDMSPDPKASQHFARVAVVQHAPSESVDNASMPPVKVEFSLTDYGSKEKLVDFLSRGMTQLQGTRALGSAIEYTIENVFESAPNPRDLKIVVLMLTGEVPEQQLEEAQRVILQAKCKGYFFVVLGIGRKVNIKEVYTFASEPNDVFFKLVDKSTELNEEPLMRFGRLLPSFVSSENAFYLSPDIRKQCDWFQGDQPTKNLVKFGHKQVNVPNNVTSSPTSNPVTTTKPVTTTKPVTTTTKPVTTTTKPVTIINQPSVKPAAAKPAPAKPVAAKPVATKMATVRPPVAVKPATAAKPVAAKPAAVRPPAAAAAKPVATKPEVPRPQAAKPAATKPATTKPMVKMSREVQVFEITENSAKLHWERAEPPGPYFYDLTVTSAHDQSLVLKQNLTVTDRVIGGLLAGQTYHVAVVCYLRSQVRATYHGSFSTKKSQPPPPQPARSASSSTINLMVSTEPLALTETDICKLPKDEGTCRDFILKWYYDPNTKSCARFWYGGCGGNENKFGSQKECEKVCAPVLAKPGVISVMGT

Columns and labels:
Test in all cases: log2 fold change, soluble protein after heating vs DMSO (PISA); higher = thermal stabilisation; K562 cells, 10 uM, 30 min; active = over 0.2 and 3.5 SD of the protein, either way, in both replicates (recomputed)
IRAK-1-4 Inhibitor I = compound: C1COCCN1CCN2C3=CC=CC=C3N=C2NC(=O)C4=CC(=CC=C4)[N+](=O)[O-] [IRAK-1-4 Inhibitor I]
Method in brief: (§1)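 Soluble protein was quantified by TMTpro 16plex LC-MS/MS after channel sums were equalised. It was obtained as the supernatant after 21,000xg for 90 min from pooled aliquots of K562 cells (2×10^6 cells/mL, 10 μM compound, 30 min) heated for 3 min across 48°C-58°C and extracted in PBS with 0.5% NP-40 at 4°C. Thermal stability values are relative to control samples and come from duplicates. They are given as log2 fold changes.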

ralimetinib = compound: CC(C)(C)Cn1c(N)nc2ccc(-c3[nH]c(C(C)(C)C)nc3-c3ccc(F)cc3)nc21 [ralimetinib]
Method in brief: as §1

[1] = compound: CC(C)C1=C2N=C(C=C(N2N=C1)NCC3=CC=CC=C3)NCCCCCCN
Method in brief: as §1

[2] = compound: CC(C)C[C@@H](C=O)NC(=O)[C@H](CC(C)C)NC(=O)[C@H](CC(C)C)NC(=O)OCc1ccccc1
Method in brief: as §1

pinometostat = compound: CC(C)N(C[C@H]1O[C@@H](n2cnc3c(N)ncnc32)[C@H](O)[C@@H]1O)[C@H]1C[C@@H](CCc2nc3cc(C(C)(C)C)ccc3[nH]2)C1 [pinometostat]
Method in brief: as §1

[3] = compound: CC1=C(C2=C(C=C1)C(=O)C3=CC=CC=C3N2CCCN)C
Method in brief: as §1

ibrutinib = compound: C=CC(=O)N1CCC[C@@H](n2nc(-c3ccc(Oc4ccccc4)cc3)c3c(N)ncnc32)C1 [ibrutinib]
Method in brief: as §1

[4] = compound: CC(C)(O)CC(=O)NCCn1ccc2ncnc(Nc3ccc(Oc4cccc(C(F)(F)F)c4)c(Cl)c3)c21
Method in brief: as §1

[5] = compound: CC(=O)c1cnc2ccc(-c3cc(Cl)c(O)c(Cl)c3)nc2c1N[C@H]1CC[C@H](CN(C)C)CC1
Method in brief: as §1

[6] = compound: CC1=C(C(CC(=O)N1)C2=CC=C(C=C2)C(F)(F)F)C(=O)NC3=C(C=C4C(=C3)C=NN4)F
Method in brief: as §1

Measured: log2 fold change

CPTP (UniProt Q5TA50)
inactive: IRAK-1-4 Inhibitor I -0.026 | ralimetinib 0.018 | [1] -0.075 | [2] -0.319 | pinometostat 0.088

CPNE5 (UniProt Q9HCH3)
inactive: [1] -0.209 | [3] -0.225

CRTC3 (UniProt Q6UUV7)
inactive: ibrutinib -0.035 | ralimetinib 0.048 | [4] -0.104 | [2] 0.042 | [3] 0

COMMD6 isoform 2 (UniProt Q7Z4G1)
inactive: [4] -0.077 | [1] 0.13

CPA4 (UniProt Q9UI42)
inactive: [5] -0.117 | [3] 0.615

COMMD3-BMI1 (UniProt R4GMX3)
inactive: [5] 0.055 | [4] -0.003 | [3] -0.071

CRY1 (UniProt Q16526)
inactive: ralimetinib 0.023 | [4] -0.083 | [2] 0.051 | [6] -0.107

CREM isoform 1 (UniProt Q03060)
inactive: ibrutinib 0.147 | [5] -0.123 | ralimetinib 0.039 | [4] 0.053 | [1] 0.074 | [2] 0.015 | [6] -0.082 | [3] 0.184

CRYBB1 (UniProt P53674)
inactive: IRAK-1-4 Inhibitor I 0.193 | [4] 0 | [1] 0.173 | pinometostat -0.25

CSNK1A1 isoform 3 (UniProt P48729)
inactive: ibrutinib 0.029

CS (UniProt F8VU34)
inactive: ibrutinib -0.137

COP1 (UniProt Q8NHY2)
inactive: [5] -0.059 | ralimetinib -0.119 | [2] 0.08

CORO2A (UniProt Q92828)
inactive: ibrutinib -0.068 | [5] -0.022 | ralimetinib 0.019 | [1] -0.088 | [2] 0.21 | [3] 0.01

CRNN (UniProt Q9UBG3)
inactive: ibrutinib 0.049 | [1] -0.844

CRABP2 (UniProt P29373)
inactive: [4] 0

CORO6 isoform 5 (UniProt Q6QEF8)
inactive: IRAK-1-4 Inhibitor I -0.031 | [5] -0.022 | [4] -0.044 | pinometostat 0.074 | [3] 0.003

CRY2 (UniProt Q49AN0)
inactive: ibrutinib -0.07 | [5] 0.035 | [6] -0.094 | [3] -0.012

COL3A1 (UniProt P02461)
inactive: IRAK-1-4 Inhibitor I 0.088 | ralimetinib -0.216 | [4] 0.011 | [1] 0.16 | [2] 0.142 | pinometostat 0.001 | [3] 0.019

COQ4 (UniProt Q9Y3A0)
inactive: ralimetinib -0.28 | [2] 0.283

CROCCP2 (UniProt Q86T23)
inactive: ibrutinib 0.043 | ralimetinib 0.091 | [1] 0.43 | [2] 0.009

COL2A1 (UniProt P02458)
inactive: [5] 0.185 | [3] -0.183

CPN1 (UniProt P15169)
inactive: ibrutinib -0.215 | ralimetinib 0.042 | [1] -0.037 | [2] 0.019 | [3] -0.083

COX14 (UniProt Q96I36)
inactive: IRAK-1-4 Inhibitor I -0.077 | ibrutinib 0.051 | [4] -0.06 | [1] 0.138 | pinometostat 0.072 | [6] -0.007

CP (UniProt P00450)
inactive: ibrutinib 0.193 | ralimetinib 0.242 | [2] -0.076

CRISP3 isoform 3 (UniProt P54108)
inactive: ibrutinib 0.336

CRLS1 (UniProt Q9UJA2)
inactive: IRAK-1-4 Inhibitor I -0.03 | [1] 0.036 | pinometostat -0.071 | [3] -0.005

CSNK1G2 (UniProt P78368)
inactive: IRAK-1-4 Inhibitor I -0.309 | [5] 0.087 | [4] 0.047 | pinometostat 0.086 | [6] 0.017 | [3] -0.026

CR1L (UniProt Q2VPA4)
inactive: [1] 0.074

COL25A1 (UniProt Q9BXS0)
inactive: ibrutinib 0.062 | [4] -0.279 | [1] -0.068

CRADD (UniProt P78560)
inactive: IRAK-1-4 Inhibitor I 0.152 | [5] -0.041 | [1] -0.113 | pinometostat 0.141 | [3] -0.156

COL6A3 (UniProt P12111)
inactive: [4] 0.218 | [1] 0.017

Quoted at random: 2 entries already listed.
CR1L (UniProt Q2VPA4)
inactive: [1] 0.074

COL25A1 (UniProt Q9BXS0)
inactive: ibrutinib 0.062 | [4] -0.279 | [1] -0.068

Remaining list, next part:

CPSF4 (UniProt O95639)
inactive: ibrutinib -0.082 | [5] -0.471 | ralimetinib 0.353 | [2] -0.036 | [6] 0.109

CRMP1 isoform 2 (UniProt Q14194)
inactive: ibrutinib 0.038 | [5] -0.224 | [1] 0.124 | [3] 0.181

COQ2 (UniProt Q96H96)
inactive: [4] 0.414 | [1] -0.163
